Assay results published in PMC8031663.
For some of these results: No signal at the amounts used counts as a negative. For some of these results: Construct, isoform or probe ends are uncertain for at least one entry. For some of these results: A weaker result is weaker than the reference pair of the same experiment. For some of these results: Results from cells or extracts need not show a direct contact.

Key:
[1] = target: hnRNPK (endogenous, PC3 lysate) (UniProt P61978); assay: pull-down; details: pull-down: 10 mM Tris-Cl pH 7.5, 20 mM KCl, 1.5 mM MgCl2, 5 mM DTT, 0.5 mM EDTA, 5% glycerol, 0.5% NP-40, 4 C; protein in an extract; label: 3' biotin
[2] = target: hnRNPK (6xHis-GFP fusion) (Homo sapiens) (UniProt P61978); assay: MST; details: higher Kd than motif_mimic, value only in figure; MST: 50 mM HEPES, 0.3 M KCl, pH 7.4, 40 nM RNA, protein dilution from 150 uM, temperature not stated; recombinant protein; protein details: N-terminal 6xHis-GFP, TEV site; label: 5' 6-FAM
BSA = BSA (UniProt P02769); assay: MST; details: no dose response, negative control; MST: 50 mM HEPES, 0.3 M KCl, pH 7.4, 40 nM RNA, protein dilution from 150 uM, temperature not stated; commercial protein; label: 5' 6-FAM

## AAUUGCACGGUAUCCAUCUGUA [biotin-miR-363-3p]
[1]
  binding result: no binding

## UCGAAUGCCUACAGAACUUUGU [motif_scramble (motif_scrambled)]
[2]
  binding result: binds more weakly

## UGUAAUCACGACAUGACCUUUG [biotin-scrambled miRNA]
[1]
  binding result: no binding

## UCAACGCACUACAGAACUUUGU [motif_mutated (motif_mutant)]
[2]
  binding result: binds more weakly

## UCAGUGCACUACAGAACUUUGU [biotin-miR-148a-3p]
[1]
  binding result: binds

## UCAGUGCACUACAGAACUUUGU [motif_mimic (miR-148a-3p)]
BSA
  binding result: no binding

## UGUAAACAUCCUCGACUGGAAG [biotin-miR-30a-5p]
[1]
  binding result: binds
